Assay results: patent publication US20260055182A1
No constants are given. Whether binding was seen depends on the method and setting. Some entries that bind do so weakly or less than the wild type.

Amino acid sequences for entries named in this document (tags omitted). Residues count along the entry.
UniProt P32004, residues 20-1120: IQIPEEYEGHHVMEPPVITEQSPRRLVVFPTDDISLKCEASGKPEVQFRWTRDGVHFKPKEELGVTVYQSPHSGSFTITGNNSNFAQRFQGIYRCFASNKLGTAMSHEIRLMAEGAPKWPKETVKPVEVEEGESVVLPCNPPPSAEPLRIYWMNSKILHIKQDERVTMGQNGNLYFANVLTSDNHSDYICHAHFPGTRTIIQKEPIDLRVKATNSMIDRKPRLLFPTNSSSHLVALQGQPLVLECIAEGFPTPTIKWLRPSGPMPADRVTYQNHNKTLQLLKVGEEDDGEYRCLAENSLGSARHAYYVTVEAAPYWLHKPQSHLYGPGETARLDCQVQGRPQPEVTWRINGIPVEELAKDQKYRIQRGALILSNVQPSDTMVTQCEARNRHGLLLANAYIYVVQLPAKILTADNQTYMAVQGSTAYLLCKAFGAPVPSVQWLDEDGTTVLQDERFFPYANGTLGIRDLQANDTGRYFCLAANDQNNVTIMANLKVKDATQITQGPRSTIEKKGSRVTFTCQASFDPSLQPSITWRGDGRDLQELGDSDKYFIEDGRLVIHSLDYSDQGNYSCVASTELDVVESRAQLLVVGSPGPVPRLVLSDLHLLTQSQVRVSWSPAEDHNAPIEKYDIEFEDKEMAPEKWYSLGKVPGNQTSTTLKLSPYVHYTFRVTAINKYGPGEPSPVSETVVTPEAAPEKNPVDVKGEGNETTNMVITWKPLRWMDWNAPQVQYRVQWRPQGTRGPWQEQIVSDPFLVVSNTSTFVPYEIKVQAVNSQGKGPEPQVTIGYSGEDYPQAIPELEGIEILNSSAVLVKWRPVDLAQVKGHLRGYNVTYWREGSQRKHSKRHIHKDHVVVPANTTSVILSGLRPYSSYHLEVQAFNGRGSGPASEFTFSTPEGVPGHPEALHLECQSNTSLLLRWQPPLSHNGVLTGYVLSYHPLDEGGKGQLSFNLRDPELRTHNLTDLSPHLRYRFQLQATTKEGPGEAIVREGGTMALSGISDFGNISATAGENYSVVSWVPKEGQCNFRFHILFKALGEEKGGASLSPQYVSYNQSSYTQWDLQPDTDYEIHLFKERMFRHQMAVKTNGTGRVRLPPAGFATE

Biological target: L1-CAM recombinant protein (His Tag), human (human) (UniProt P32004)
Experiment: SPR (Biacore 8K), L1-CAM immobilised on CM5 chip, antibody as analyte, blank-subtracted

Row | binding | Binder
1 | binds | CE7-variant26 (antibody, V domains shown) VH: QVQLVQSGAEVKKPGASVKVSCKASGYTFTGYWMHWVRQAPGQGLEWMGEINPSNGRTNYNEKFQGRVTLTVDKSISTAYMELSRLRSDDTAVYYCARDYYGTSYNFDYWGQGTLVTVSS VL: DIQMTQSPSSLSASVGDRVTITCRANEDINNRLAWYQQKPGKAPKLLISGATNLVTGVPSRFSGSGSGKDYTLTISSLQPEDFATYYCQQYWSTPFTFGQGTKLEIKR
2 | binds | CE7-variant28 (antibody, V domains shown) VH: QVQLVQSGAEVKKPGASVKVSCKASGYTFTGYWMHWVRQAPGQGLEWMGEINPSNGRTNYNEKFQGRVTLTVDKSISTAYMELSRLRSDDTAVYYCARDYYGTSYNFDYWGQGTLVTVSS VL: DIQMTQSPSSLSASVGDRVTITCRASQGINNRLAWYQQKPGKAPKLLISGASNLVSGVPSRFSGSGSGKDYTLTISSLQPEDFATYYCQQYWSTPFTFGQGTKLEIKR
